# Laboratory results from the supplement of paper PMC6411743.
# Chains of the proteins cited; added tags and fusions are not shown. Lines headed by an entry give the natural chain unless they say otherwise; changes in a name come on top.
# UniProt P14735, whole entry: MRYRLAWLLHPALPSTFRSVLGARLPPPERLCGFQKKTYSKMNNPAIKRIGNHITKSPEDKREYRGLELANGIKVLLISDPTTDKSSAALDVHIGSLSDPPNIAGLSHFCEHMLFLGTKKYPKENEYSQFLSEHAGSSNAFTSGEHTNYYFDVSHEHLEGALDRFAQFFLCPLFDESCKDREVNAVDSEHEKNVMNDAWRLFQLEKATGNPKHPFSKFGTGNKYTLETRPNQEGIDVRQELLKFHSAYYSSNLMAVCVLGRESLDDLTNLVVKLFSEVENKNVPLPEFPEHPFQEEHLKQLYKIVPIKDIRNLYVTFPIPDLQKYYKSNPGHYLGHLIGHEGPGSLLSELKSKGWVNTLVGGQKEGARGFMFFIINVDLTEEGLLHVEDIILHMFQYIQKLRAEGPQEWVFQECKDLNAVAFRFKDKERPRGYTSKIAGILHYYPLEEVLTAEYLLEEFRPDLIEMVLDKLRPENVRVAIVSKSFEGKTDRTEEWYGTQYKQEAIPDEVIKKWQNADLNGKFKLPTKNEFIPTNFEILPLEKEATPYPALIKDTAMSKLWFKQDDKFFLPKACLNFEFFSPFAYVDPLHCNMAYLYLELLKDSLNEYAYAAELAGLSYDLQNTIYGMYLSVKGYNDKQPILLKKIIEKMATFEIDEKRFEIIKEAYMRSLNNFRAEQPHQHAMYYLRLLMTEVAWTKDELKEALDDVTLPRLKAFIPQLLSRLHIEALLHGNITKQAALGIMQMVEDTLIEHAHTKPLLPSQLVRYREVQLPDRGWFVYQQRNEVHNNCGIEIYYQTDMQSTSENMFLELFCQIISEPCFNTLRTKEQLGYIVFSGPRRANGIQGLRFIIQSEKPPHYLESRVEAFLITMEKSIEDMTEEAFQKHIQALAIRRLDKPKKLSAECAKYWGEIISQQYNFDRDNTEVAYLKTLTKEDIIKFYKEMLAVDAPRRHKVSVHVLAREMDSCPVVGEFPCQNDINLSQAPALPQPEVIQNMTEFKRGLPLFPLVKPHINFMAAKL
# UniProt P09972: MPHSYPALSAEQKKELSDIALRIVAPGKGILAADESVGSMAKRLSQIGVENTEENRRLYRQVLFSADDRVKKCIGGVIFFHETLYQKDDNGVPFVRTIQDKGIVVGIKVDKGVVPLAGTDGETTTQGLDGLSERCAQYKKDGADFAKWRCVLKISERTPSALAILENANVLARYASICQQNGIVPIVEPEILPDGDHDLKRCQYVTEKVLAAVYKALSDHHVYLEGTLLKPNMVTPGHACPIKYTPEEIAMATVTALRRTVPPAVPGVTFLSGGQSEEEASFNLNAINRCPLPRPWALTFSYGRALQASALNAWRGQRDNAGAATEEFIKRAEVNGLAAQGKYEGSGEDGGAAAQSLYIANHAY
# UniProt O95825: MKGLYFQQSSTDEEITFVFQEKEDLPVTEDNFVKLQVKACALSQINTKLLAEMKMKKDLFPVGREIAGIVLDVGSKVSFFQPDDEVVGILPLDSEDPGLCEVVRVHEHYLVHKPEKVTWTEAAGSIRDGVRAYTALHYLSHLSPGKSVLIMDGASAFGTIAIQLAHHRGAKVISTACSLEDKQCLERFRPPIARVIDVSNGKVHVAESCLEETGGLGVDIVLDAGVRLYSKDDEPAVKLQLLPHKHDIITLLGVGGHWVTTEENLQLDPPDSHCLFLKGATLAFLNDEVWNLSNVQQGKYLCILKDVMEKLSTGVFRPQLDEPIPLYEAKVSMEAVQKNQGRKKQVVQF
# UniProt O95848: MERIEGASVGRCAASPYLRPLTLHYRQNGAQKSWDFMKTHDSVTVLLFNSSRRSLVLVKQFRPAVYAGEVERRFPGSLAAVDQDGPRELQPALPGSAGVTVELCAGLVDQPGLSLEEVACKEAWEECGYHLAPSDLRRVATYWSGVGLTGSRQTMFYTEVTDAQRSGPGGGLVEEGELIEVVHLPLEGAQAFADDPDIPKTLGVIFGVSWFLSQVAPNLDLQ
# UniProt P06753, whole entry: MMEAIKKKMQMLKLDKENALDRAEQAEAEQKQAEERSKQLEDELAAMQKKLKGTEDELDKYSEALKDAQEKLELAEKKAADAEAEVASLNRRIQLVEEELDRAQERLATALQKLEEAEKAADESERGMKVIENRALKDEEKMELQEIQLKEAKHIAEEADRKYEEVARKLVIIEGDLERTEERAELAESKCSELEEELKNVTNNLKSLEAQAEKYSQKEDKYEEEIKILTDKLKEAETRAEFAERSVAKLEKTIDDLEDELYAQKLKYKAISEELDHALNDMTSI
# UniProt P13861, whole entry: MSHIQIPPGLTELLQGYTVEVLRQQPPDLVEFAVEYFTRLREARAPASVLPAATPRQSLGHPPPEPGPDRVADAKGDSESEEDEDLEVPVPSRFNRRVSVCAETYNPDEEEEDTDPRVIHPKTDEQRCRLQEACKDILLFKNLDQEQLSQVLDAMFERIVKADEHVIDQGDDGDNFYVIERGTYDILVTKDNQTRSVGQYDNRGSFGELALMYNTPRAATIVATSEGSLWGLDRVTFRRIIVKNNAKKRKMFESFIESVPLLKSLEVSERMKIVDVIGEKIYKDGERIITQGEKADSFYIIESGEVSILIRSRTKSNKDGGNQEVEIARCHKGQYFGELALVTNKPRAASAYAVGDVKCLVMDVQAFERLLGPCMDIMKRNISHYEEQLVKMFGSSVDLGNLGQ
# UniProt P12277: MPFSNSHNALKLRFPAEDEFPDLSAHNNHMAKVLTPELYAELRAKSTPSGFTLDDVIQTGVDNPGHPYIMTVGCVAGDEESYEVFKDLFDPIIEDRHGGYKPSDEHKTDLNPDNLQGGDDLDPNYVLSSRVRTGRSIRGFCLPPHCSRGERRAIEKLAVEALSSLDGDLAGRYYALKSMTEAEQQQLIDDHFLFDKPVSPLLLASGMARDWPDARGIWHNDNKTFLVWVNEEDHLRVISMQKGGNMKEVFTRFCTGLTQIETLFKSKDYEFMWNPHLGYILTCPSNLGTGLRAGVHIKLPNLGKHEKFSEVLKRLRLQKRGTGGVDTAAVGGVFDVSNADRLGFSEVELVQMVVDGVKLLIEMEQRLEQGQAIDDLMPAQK
# UniProt P00167, whole entry: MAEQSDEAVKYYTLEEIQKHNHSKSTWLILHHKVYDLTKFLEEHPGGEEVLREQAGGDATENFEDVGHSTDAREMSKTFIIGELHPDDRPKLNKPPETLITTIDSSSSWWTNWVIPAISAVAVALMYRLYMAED
# UniProt P01137, whole entry: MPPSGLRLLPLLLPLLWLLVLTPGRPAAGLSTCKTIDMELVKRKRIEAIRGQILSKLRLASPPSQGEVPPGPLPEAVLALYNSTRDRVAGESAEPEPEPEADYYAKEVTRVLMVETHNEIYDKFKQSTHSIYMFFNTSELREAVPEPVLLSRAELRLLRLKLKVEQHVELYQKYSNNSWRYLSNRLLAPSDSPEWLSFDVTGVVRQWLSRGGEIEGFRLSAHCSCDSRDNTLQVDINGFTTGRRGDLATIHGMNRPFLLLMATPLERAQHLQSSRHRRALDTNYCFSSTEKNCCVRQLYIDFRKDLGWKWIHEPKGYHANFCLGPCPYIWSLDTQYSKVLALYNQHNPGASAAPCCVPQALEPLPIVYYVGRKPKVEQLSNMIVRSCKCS
# UniProt P16083: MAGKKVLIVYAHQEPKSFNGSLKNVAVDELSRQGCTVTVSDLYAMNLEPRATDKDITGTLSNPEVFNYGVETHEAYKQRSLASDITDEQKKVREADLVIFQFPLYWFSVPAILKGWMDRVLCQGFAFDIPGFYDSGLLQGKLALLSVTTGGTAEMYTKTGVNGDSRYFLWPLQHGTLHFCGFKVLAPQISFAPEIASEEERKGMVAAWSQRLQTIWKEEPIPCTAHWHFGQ
# UniProt P14921: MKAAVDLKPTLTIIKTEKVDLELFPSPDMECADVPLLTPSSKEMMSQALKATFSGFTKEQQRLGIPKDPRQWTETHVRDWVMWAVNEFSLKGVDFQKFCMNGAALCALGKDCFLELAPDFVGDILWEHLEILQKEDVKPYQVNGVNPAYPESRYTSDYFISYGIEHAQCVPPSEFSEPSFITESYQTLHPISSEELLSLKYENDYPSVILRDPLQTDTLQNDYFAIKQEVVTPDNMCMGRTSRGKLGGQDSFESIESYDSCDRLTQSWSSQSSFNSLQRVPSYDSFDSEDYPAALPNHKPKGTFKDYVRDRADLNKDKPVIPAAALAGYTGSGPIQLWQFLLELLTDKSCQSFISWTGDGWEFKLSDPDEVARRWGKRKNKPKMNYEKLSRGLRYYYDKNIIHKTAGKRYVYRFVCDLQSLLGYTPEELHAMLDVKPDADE
# UniProt P04053: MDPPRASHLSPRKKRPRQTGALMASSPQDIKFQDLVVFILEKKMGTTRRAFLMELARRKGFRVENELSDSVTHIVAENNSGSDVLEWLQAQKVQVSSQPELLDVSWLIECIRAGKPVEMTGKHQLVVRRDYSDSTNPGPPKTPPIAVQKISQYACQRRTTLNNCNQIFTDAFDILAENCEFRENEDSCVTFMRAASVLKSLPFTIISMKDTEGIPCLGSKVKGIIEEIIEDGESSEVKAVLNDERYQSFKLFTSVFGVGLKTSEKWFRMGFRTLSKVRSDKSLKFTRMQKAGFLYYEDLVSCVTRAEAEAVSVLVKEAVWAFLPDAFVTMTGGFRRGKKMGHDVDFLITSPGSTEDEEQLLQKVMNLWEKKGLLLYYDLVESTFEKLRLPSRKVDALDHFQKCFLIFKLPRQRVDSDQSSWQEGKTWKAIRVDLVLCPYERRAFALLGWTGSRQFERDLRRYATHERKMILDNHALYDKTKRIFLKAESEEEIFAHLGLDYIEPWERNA
# UniProt P00966: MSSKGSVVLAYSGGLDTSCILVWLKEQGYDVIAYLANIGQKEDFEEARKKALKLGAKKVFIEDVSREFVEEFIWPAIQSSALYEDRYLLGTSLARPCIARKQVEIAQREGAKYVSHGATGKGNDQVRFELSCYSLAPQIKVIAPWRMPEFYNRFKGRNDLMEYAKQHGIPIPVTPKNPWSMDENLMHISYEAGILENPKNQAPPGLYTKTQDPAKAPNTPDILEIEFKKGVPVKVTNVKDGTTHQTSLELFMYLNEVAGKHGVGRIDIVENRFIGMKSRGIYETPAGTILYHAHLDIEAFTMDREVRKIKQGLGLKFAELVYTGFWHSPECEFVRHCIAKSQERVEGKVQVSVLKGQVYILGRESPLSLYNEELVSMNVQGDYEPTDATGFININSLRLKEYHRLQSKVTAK
# UniProt P10114: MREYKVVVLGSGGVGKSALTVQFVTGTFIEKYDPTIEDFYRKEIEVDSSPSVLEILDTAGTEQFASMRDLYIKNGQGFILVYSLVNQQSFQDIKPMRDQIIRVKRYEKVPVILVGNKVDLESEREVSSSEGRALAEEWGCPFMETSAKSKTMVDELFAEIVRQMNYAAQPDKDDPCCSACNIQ
# UniProt P14621: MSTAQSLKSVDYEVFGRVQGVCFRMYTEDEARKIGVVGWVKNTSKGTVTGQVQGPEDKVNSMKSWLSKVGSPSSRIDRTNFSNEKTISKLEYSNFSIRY
# UniProt P11169: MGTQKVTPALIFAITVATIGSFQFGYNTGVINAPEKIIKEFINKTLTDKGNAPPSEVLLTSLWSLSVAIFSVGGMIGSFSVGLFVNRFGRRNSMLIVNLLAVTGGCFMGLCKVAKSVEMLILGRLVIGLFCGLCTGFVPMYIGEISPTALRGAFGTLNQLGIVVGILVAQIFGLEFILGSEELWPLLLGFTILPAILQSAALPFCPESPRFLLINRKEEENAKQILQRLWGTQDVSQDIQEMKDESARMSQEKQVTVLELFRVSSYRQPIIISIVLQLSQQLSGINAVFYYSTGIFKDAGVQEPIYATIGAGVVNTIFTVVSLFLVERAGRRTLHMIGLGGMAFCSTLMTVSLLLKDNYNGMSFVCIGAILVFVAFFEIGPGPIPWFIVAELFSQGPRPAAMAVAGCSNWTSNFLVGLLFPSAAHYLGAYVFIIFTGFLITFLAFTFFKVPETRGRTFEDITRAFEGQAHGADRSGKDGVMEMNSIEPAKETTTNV
# UniProt P07237: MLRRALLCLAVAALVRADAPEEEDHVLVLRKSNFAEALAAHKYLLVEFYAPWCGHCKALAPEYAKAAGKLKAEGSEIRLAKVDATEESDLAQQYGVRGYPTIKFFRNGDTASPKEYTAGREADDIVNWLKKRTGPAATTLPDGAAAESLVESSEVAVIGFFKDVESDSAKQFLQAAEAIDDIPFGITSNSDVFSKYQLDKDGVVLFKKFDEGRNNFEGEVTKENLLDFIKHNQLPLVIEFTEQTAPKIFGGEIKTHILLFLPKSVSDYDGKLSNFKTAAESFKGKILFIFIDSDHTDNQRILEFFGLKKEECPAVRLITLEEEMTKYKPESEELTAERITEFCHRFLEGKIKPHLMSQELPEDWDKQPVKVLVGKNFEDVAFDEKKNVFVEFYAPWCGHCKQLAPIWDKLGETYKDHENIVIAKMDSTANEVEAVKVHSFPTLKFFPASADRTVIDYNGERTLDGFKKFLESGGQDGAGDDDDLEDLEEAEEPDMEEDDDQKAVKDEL
# UniProt O95881: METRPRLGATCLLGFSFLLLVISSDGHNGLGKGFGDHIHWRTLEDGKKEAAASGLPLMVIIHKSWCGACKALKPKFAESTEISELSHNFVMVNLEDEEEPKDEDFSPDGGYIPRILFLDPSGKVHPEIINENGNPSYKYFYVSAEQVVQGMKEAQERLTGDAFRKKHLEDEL
# ± gives the standard deviation of the averaged measurements. The list shows a part of the results, in another mix than the full data. Most entries show no effect beyond the scatter of the controls.
# Compound: Nc1ncnc2c1ncn2[C@@H]1O[C@H](COP(=O)(O)OP(=O)(O)OP(=O)(O)O)[C@@H](O)[C@H]1O [adenosine triphosphate]
# Test: NP40-soluble protein abundance relative to vehicle (solubility fold change) (ratio); higher = more soluble protein in presence of ATP
# Details: concentration: 0.1mM
# In short: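 Eight concentrations, 0.1 to 10 mM, were tested on Jurkat crude lysate for 10 min at room temperature and then 3 min at 37 °C, in three independent experiments. The lysate was solubilised with 0.8% NP40 and benzonase, ultracentrifuged, and the supernatant TMT-labelled for LC-MS/MS. Each value is the fold change against the detergent-processed vehicle in its own replicate, from vsn-normalised intensities.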
row,Target,NP40-soluble protein abundance
1,UniProt P14735 and related entries,1.06 ± 0.088
2,UniProt P10914,0.915 ± 0.024
3,ALDOC (UniProt P09972),1.01 ± 0.048
4,CRYZL1 (UniProt O95825),1.05 ± 0.06
5,NUDT14 (UniProt O95848),1.15 ± 0.08
6,UniProt P06753-2|P06753-3|P06753-5|P06753-6|J3KN67,0.825 ± 0.18
7,UniProt P07954-2,0.991 ± 0.03
8,HEXB (UniProt P07686),0.972 ± 0.027
9,PRKAR2A (UniProt P13861),1.02 ± 0.027
10,CKB (UniProt P12277),0.922 ± 0.12
11,HSP90B1 (UniProt P14625),0.984 ± 0.057
12,CYB5A (UniProt P00167),0.932 ± 0.026
13,TGFB1 (UniProt P01137),0.9956 ± 0.0088
14,UniProt P16083 and related entries,1.04 ± 0.054
15,ETS1 (UniProt P14921),0.996 ± 0.019
16,UniProt P04053 and related entries,1.05 ± 0.031
17,ASS1 (UniProt P00966),1.03 ± 0.054
18,RAP2A (UniProt P10114),1.15 ± 0.15
19,ACYP2 (UniProt P14621),0.945 ± 0.05
20,ALAS1 (UniProt P13196),1.04 ± 0.044
21,SLC2A3 (UniProt P11169),1.08 ± 0.022
22,P4HB (UniProt P07237),0.968 ± 0.049
23,UROD (UniProt P06132),1.02 ± 0.026
24,UniProt P00387 and related entries,1.04 ± 0.07
25,TXNDC12 (UniProt O95881),0.959 ± 0.029
26,DARS (UniProt P14868),1.04 ± 0.033
27,DDAH2 (UniProt O95865),0.996 ± 0.026
28,PLS3 (UniProt P13797),1.05 ± 0.021

# Reprinted, entries 27–28
row,Target,NP40-soluble protein abundance
27,DDAH2 (UniProt O95865),0.996 ± 0.026
28,PLS3 (UniProt P13797),1.05 ± 0.021
